Laboratory results: patent publication US20030162221A1
These are yes or no findings as the source states them, for the method shown. In cells and extracts the contact can be indirect. Some binding calls cover weakened binding; strength is not graded here. For part of these data: Sequences can lack the tags named with a protein.

By UniProt entry, the sequences of proteins in these tests, tags left out. Residues count along the entry.
UniProt P00546, residues 2-298: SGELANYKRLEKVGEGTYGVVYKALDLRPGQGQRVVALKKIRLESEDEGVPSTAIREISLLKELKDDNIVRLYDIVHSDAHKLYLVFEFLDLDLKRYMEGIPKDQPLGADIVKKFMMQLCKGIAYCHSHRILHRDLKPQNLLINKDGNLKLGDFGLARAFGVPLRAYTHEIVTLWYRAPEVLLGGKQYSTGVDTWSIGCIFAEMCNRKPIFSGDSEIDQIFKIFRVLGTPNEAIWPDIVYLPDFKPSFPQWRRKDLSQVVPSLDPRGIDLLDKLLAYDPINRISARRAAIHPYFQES

Columns and labels:
Assay in all cases: anti-FLAG co-IP, LC-MS/MS
[1] = molecular target: T1, Clb2 (Saccharomyces cerevisiae) (UniProt P24869)
T1 sequence (looked up): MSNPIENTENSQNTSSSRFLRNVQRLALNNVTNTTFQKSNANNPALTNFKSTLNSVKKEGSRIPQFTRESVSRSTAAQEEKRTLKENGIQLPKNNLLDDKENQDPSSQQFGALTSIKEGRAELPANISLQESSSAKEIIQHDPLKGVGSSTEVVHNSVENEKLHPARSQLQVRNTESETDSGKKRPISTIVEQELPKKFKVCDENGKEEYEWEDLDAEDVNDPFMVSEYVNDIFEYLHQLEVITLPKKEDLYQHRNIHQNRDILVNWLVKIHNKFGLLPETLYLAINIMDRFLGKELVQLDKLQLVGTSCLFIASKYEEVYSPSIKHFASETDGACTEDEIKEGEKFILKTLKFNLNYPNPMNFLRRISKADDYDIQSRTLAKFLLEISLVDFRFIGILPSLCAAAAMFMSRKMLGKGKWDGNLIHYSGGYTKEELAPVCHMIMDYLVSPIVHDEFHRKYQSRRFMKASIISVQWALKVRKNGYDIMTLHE

[2] = molecular target: T2, Clb3 (Saccharomyces cerevisiae) (UniProt P24870)
T2 sequence (looked up): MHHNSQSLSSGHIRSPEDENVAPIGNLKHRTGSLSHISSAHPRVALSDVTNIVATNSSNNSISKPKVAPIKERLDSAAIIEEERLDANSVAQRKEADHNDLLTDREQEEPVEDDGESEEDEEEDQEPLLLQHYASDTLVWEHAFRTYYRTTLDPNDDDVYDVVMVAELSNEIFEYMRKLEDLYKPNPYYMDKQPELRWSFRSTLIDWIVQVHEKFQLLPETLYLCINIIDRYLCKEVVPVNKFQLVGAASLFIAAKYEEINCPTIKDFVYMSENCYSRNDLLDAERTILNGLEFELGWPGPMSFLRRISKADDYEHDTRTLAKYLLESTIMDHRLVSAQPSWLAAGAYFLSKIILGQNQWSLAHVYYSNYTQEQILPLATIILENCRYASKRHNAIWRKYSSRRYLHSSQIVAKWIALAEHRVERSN

[3] = molecular target: T3, Cln1 (Saccharomyces cerevisiae) (UniProt P20437)
T3 sequence (looked up): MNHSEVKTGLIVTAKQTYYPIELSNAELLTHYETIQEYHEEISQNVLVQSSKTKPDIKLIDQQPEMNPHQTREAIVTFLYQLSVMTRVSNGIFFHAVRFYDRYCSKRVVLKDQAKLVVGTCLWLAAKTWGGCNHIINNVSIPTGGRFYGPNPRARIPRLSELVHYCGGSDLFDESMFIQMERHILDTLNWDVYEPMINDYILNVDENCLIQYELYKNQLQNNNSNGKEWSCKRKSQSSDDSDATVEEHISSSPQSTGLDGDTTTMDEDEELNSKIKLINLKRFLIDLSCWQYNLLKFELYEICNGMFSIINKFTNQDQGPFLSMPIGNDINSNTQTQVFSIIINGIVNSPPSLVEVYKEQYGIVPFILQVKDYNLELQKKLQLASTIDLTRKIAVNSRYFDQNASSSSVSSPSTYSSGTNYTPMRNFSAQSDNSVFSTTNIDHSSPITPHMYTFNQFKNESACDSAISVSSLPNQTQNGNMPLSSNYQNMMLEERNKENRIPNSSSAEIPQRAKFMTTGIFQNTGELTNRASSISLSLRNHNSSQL

[4] = molecular target: T4, Clb5 (Saccharomyces cerevisiae) (UniProt P30283)
T4 sequence (looked up): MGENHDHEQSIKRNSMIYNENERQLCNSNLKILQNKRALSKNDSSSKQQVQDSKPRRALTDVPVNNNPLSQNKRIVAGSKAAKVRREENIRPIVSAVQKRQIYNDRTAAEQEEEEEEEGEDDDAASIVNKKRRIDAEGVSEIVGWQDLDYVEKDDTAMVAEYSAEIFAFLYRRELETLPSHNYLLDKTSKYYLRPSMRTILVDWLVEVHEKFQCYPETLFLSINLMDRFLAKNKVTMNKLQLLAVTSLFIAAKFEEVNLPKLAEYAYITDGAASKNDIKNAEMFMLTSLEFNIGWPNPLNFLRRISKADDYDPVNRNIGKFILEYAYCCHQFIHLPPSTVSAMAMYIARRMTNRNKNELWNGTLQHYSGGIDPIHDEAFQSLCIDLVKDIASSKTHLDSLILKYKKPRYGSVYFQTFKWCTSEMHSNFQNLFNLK

[5] = molecular target: Cdc28 (Saccharomyces cerevisiae) (UniProt P00546)
[6] = molecular target: T5, Cks1 (Saccharomyces cerevisiae) (UniProt P20486)
T5 sequence (looked up): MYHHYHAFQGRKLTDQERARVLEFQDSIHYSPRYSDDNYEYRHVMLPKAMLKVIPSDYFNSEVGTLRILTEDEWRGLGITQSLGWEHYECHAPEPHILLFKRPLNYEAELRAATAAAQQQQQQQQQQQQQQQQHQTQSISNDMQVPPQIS

[7] = molecular target: T6, Fkh1 (Saccharomyces cerevisiae) (UniProt P40466)
T6 sequence (looked up): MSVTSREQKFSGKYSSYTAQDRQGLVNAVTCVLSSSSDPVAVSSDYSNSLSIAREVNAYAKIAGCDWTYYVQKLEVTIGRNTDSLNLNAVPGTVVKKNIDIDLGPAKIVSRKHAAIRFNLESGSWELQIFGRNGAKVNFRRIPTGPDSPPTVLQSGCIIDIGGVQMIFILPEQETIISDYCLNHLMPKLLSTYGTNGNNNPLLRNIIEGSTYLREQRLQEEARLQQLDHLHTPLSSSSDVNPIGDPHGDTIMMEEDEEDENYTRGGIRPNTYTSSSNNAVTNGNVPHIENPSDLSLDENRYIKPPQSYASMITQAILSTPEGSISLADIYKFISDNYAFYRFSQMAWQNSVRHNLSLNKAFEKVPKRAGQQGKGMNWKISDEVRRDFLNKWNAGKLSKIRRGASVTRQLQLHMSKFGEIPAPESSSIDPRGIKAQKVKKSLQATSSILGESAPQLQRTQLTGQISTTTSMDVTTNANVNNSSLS

[8] = molecular target: T7, Fkh2 (Saccharomyces cerevisiae) (UniProt P41813)
T7 sequence (looked up): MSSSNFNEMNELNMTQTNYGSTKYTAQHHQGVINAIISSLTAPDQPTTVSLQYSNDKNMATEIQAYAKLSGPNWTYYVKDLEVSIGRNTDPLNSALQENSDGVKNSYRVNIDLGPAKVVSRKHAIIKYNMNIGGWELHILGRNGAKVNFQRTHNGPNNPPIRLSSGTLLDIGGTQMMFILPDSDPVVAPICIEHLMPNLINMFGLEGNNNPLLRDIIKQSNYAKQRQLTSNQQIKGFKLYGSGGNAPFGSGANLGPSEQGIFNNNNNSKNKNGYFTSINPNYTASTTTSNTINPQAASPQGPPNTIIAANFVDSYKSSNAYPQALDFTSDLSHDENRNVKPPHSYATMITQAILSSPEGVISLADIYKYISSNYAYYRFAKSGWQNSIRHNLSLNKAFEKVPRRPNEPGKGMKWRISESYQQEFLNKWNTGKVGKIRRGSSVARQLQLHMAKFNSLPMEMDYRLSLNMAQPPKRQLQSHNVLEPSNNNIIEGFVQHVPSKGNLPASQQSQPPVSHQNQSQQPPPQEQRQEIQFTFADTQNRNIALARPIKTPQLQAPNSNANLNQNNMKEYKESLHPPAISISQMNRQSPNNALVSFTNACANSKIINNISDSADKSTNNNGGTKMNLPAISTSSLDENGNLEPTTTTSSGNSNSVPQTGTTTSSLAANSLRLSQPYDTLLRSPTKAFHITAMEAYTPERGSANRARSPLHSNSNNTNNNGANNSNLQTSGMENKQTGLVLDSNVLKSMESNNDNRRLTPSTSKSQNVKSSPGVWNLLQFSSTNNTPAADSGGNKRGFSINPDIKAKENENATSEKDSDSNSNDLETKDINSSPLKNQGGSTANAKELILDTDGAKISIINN

Measured: binding

B1: Cks1 (protein, Saccharomyces cerevisiae, UniProt P20486 1-150, looked up)
chain: T5 sequence (looked up)
binds: [1] | [2] | [3] | [4] | [5]

B2: Cln1 (protein, Saccharomyces cerevisiae, UniProt P20437 1-546, looked up)
chain: T3 sequence (looked up)
binds: [5] | [6]

B3: Fhl1 (protein, Saccharomyces cerevisiae, UniProt P39521 1-936, looked up)
chain: MDGEMAIIESSNHVGTSSPTTETQFTIDSSALKDQETKESITNSPTSEVPIETKLPKSSDIVTEEKHPQNTTTDIENEVENPVTDDNGNLKLELPDNLDNADFSKLLEFDAKNDEALFNSNELLSHTMDPVNNIDLTHDHSREVSSKEDINIEPVNPDEDEREKTQDNTAAVKTEGIRNSEDTSIQKDEPTADAIYTDVHKLSVNKDTETLPTLVDEKNNMLHMRNNSITPIMFQQHELVGQPPQNTVTENNSTDAETTQRKLSEPIDASLPLPNEQPTIFAYARLDFQSFTFYVQTLHAIIGRRSENDFSHKVDVNLGPSKSISRRHAQIFYNFGTGRFELSIIGKNGAFVDDIFVEKGNTVPLRNKTKIQIGQIPFQFILPEQERNDDSKSPENADIAESEINTRNLKKNEPKSKKKITTGAKPKKAQTKPAVKKEKKPPKIPKKVYTLEEIPVEYRTKPTVSYSAMLTTCIRKYSTAKGMSLSEIYAGIRELFPYYKYCPDGWQSSVRHNLSLNKSFRKVSKEGKGWLWGLDEEYIAERERQKKKQSEIAVAKAQAAQLKLEQQQHKLQQVPQRGKKDIVSQRSNVNARKQNISQTLAANRAASNRKNTASDNQRTMKYLQEQLVILTRDRKGLSKQVIAAILTQALAMTINQVTQAAKNKGITGNPLTALMDKNPQHLNLILAAAVNAATAKVTKGEVKQLVNPETTAAAALAAKAQHSKPIRQPIVQTPHVPDRPPSQLSASASSHPNNYLHDKQPGSFDPSSLSRFFQPRQNARATSSVAATSVPAAASQNVDAQPKPKPAQDNDLESESGTSSSSSSSSESGSESDSGSDDGSASGSGDNSSTSSESESESDSGSEVDEKNNKNEKIDSESIKNNESKDDIPSKDENSSNDNREISKTDEEGHDSKRRKVSEDINEGITEVNVSLEEKL
binds: [7] | [8]
